# From PubChem BioAssay AID2685 (National Center for Advancing Translational Sciences (NCATS), 2010)
# The other results are listed elsewhere or left out. The main result of the screen is listed elsewhere. These columns were measured beside it and carry no call. Most of these compounds were active or inconclusive in the main read-out, so they are no random draw. The note in brackets gives the kind of curve behind each potency; many fits are weak.
# Experiment: qHTS Assay for Lipid Storage Modulators in Drosophila S3 Cells;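 for cell number change: cells counted by Cell Tracker Red CMTPX staining in the red channel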
# Settings: BODIPY lipid droplet fluorescence, 18-24 h; for cell number change: measured here: cell count max response, cells fed with added oleic acid
# In short: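 Drosophila S3 cells loaded with oleic acid (400 uM, as added) and compounds at several concentrations; lipid droplets imaged by 488-nm laser-scanning cytometry, 500–530 nm intensity and object ratio to cell channel. Percent activity normalized to 20 uM Triacsin C.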
# [1] = measured here: cell number channel AC50, cells fed with added oleic acid
# [2] = measured here: lipid fluorescence (Fed channel) AC50, cells fed with added oleic acid
compound,measurement,setting,value
CCOC(=O)c1cccc(NC(=O)Nc2cc(OC)ccc2OC)c1,cell number change,,-75.3%
same,AC50,[1],"29.1 µM [falling, single point]"
COc1ccc2cc(CN(Cc3ccco3)C(c3nnnn3C3CCCCC3)C(C)C)c(=O)[nH]c2c1 (configuration not stated),AC50,[1],"5.17 µM [rising, partial curve]"
same,AC50,[2],"6.51 µM [rising, single point]"
COc1ccc2ccc(O)c(CN3CCN(S(=O)(=O)c4cccc(C(F)(F)F)c4)CC3)c2c1,cell number change,,-5.18%
same,AC50,[2],"4.11 µM [falling, single point]"
O=C(N/C(=C/c1ccc(Br)cc1)C(=O)N1CCCCC1)c1ccccc1F,cell number change,,-22.6%
CCc1cccc(NC(=O)c2ccc(Br)o2)c1,cell number change,,7.94%
Cc1cc(C)c(OCC(O)CN2CCN(c3ccccn3)CC2)c(C)c1 (configuration not stated),cell number change,,13.8%
same,AC50,[2],"4.61 µM [falling, single point]"
O=C(COc1ccccc1)NC(=S)Nc1ccc2c3c(cccc13)CC2,cell number change,,-9.82%
same,AC50,[2],"0.326 µM [rising, full curve]"
CC(/C=C1\SC(=S)N(CCCC(=O)Nc2ccc(C(=O)O)cc2)C1=O)=C\c1ccccc1,AC50,[2],"8.2 µM [falling, partial curve]"
NNC(=O)c1cc(C23CC4CC(CC(C4)C2)C3)[nH]n1,cell number change,,-30.5%
same,AC50,[1],"11.6 µM [falling, partial curve, poor fit]"
CC(=O)Nc1ccc(NC(=O)c2ccccc2N(C)S(=O)(=O)c2ccccc2)cc1,cell number change,,-20.8%
same,AC50,[2],"0.184 µM [falling, full curve, poor fit]"
CC(Oc1ccc(Cl)cc1)C(=O)Nc1sccc1C(N)=O (configuration not stated),cell number change,,-0.202%
same,AC50,[2],"0.116 µM [rising, full curve, poor fit]"
COc1ccc(C(=O)NC2(C(F)(F)F)NC(=O)N(CCCc3ccccc3)C2=O)cc1OC (configuration not stated),cell number change,,6.93%
same,AC50,[2],"6.51 µM [rising, partial curve]"
COc1ccccc1-c1nc(C#N)c(N2CCc3ccccc3C2)o1,cell number change,,14.7%
same,AC50,[2],"1.64 µM [rising, partial curve]"
COc1ccc(C(C)=O)cc1COC(=O)c1cc(C)nc2ccccc12,AC50,[1],"5.17 µM [rising, single point]"
Oc1ccc(-c2n[nH]c(C(F)(F)F)c2-c2ccccc2)c(O)c1,cell number change,,-46.4%
same,AC50,[1],"14.6 µM [falling, single point]"
same,AC50,[2],"13 µM [falling, partial curve]"
Cc1ccc(NC(=O)C2CCN(c3nc(C)cc(C)n3)CC2)cc1,cell number change,,15.3%
same,AC50,[2],"0.411 µM [falling, single point]"
O=C(Nc1ccccc1C(=O)O)c1cccc(NC(=O)c2ccccc2Br)c1,cell number change,,44.9%
same,AC50,[1],"25.9 µM [rising, single point]"
same,AC50,[2],"29.1 µM [rising, single point]"

# In another format: results already given
compound	measurement	setting	value
O=C(N/C(=C/c1ccc(Br)cc1)C(=O)N1CCCCC1)c1ccccc1F	cell number change		-22.6%
Cc1ccc(NC(=O)C2CCN(c3nc(C)cc(C)n3)CC2)cc1	cell number change		15.3%
